PubChem BioAssay AID504804 – Drosophila RNAi Screening Center – 2011
Purpose: 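Knock-downs shielding fly cells from apoptosis caused by DNA damage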 (primary screen). Cell system: Drosophila Kc cells. Knock-down reagent: long dsRNA against Drosophila genes, 0.5 µg dsRNA per well. Timing: 96 h (48 h knock-down, then 48 h drug). Conditions: doxorubicin 5 µg/ml for 48 h, added 48 h after dsRNA. Detection: 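Luminescent ATP counts per replicate, not normalised, reflecting viable cells after 48 h dsRNA knock-down followed by 48 h of 5 µg/ml doxorubicin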. Scale: raw ATP luminescence: higher = more viable cells, protection from doxorubicin. Hit rule: 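z-score of 2 or more over plate mean in both duplicates, retained only when retests and separate dsRNAs confirm the protection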.
In all, the deposit lists about 19,000 reagents; shown is an unselected part of those that have a named target and a result. Over the whole deposit, 47 (0.25%) were called active. 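Signals are raw, not normalised; exact z-scores behind calls not deposited; actives needed confirmation, so some wells reaching 2 SD are inactive.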 Names joined by + are all predicted targets of the reagent. Reagent sequences are not shown.

predicted target	DRSC id	SD above plate mean	raw ATP luminescence, replicate 1	raw ATP luminescence, replicate 2	outcome
Ca-alpha1T (Ca[2+]-channel protein alpha[[1]] subunit T)	DRSC17842		53370	46660	inactive
Ca-alpha1T (Ca[2+]-channel protein alpha[[1]] subunit T)	DRSC18103		46420	47210	inactive
Ca-alpha1T (Ca[2+]-channel protein alpha[[1]] subunit T)	DRSC18356		48550	41180	inactive
Ca-alpha1T (Ca[2+]-channel protein alpha[[1]] subunit T)	DRSC18357		42630	44530	inactive
Fa2h (Fatty acid 2-hydroxylase)	DRSC06608		49223	68000	inactive
Fa2h (Fatty acid 2-hydroxylase)	DRSC06609		50383	66607	inactive
Rae1	DRSC04577		75170	71003	inactive
CG2269	DRSC06833		78443	61793	inactive
Atg101 (Autophagy-related 101)	DRSC20020		3.34e5	2.91e5	inactive
Shaw (Shaker cognate w)	DRSC00433		26860	31387	inactive
Shaw (Shaker cognate w)	DRSC00788		25237	33013	inactive
noi (noisette)	DRSC12383		27710	23643	inactive
dyl (dusky-like)	DRSC08466		40553	41087	inactive
dyl (dusky-like)	DRSC08467	at least 2 SD above plate mean			active
Men (Malic enzyme)	DRSC12924		2.43e5	2.74e5	inactive
Men (Malic enzyme)	DRSC16738		53130	49987	inactive
Art6 (Arginine methyltransferase 6)	DRSC16583		76200	69650	inactive
Acox57D-d (acyl-Coenzyme A oxidase at 57D distal)	DRSC04561		88773	63973	inactive
psq (pipsqueak)	DRSC07668		20160	20180	inactive
CG3014	DRSC15458		75033	63187	inactive
CG34404	DRSC15335		88900	1.11e5	inactive
CG34404	DRSC15978		48913	19417	inactive
Had2 (beta Hydroxy acid dehydrogenase 2)	DRSC05971		46213	50170	inactive
Fbxl7 (F-box and leucine-rich repeat protein 7)	DRSC15553		58650	78650	inactive
Sans (Scaffold protein containing ankyrin repeats and SAM domain)	DRSC06357		69167	73077	inactive
CG14306 (retired record)	DRSC14785		65600	64440	inactive
Mst87F (Male-specific RNA 87F)	DRSC16747		79450	67490	inactive
CG4678	DRSC19911		3.02e5	3.06e5	inactive
CG4678	DRSC19912		3.42e5	3.51e5	inactive
CG15279	DRSC01935		1.26e5	85583	inactive
CG13743	DRSC05139		1.29e5	1.23e5	inactive
CG13743	DRSC06414		40413	56477	inactive
CG12990	DRSC19510		3.22e5	3.07e5	inactive
CG6961 + CG18259	DRSC19799		3.19e5	3.00e5	inactive
Tbc1d22 (TBC1 domain family member 22)	DRSC15867		44230	55457	inactive
EMC2B (ER membrane protein complex subunit 2B)	DRSC15506		60480	52810	inactive
RhoU	DRSC17635		2.07e5	2.69e5	inactive
RhoU	DRSC17803		3.01e5	2.81e5	inactive
RhoU	DRSC17804		4.51e5	3.80e5	inactive
CG6793	DRSC10714		86267	75490	inactive
mrva (minerva)	DRSC11009		37577	31223	inactive
CG7168	DRSC16208		35853	56710	inactive
ND-30 (NADH dehydrogenase (ubiquinone) 30 kDa subunit)	DRSC08243		61003	48017	inactive
Osbp (Oxysterol binding protein)	DRSC16779		36903	46190	inactive
Fum2 (Fumarase 2)	DRSC18345		43900	45740	inactive
Tnks (tankyrase)	DRSC14154		60260	62630	inactive
CG30371	DRSC06835		42287	71313	inactive
CG12911	DRSC06226		45343	71713	inactive
exd (extradenticle)	DRSC20330		4.33e5	3.39e5	inactive
lectin-30A	DRSC02560		44590	83863	inactive
tilB (touch insensitive larva B)	DRSC20634		2.75e5	2.95e5	inactive
CG31229	DRSC13309		1.42e5	1.35e5	inactive
CG5554	DRSC04513		49847	42797	inactive
Oct-TyrR (Octopamine-Tyramine receptor)	DRSC11883		75920	58487	inactive
CG15376 (retired record)	DRSC18046		23510	31470	inactive
Usf	DRSC18129		33890	36290	inactive
morgue (modifier of rpr and grim, ubiquitously expressed)	DRSC00264		1.30e5	82957	inactive

3 neighbouring records already listed, for reference:
predicted target	DRSC id	SD above plate mean	raw ATP luminescence, replicate 1	raw ATP luminescence, replicate 2	outcome
CG2269	DRSC06833		78443	61793	inactive
Atg101 (Autophagy-related 101)	DRSC20020		3.34e5	2.91e5	inactive
Shaw (Shaker cognate w)	DRSC00433		26860	31387	inactive
